Yeast fitness data for 38 variants are collected here from the RNAGym collection of RNA variant scans (doi:10.1126/science.aae0568).

Variants at the background level are over-represented here.

The labels stand for the following.
B1: tRNA (parent)
chain: GUUCCGUUGGCGUAAUGGUAACGCGUCUCCCUCCUAAGGAGAAGACUGCGGGUUCGAGUCCCGUACGGAACG

The variants in this data set derive from B1. Briefly: yeast fitness relative to wild type (ratio to wild type); higher = fitter; tRNA-Arg(CCU), competitive growth, 37 C, YPD. The procedure, abridged: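 Amplicons of the tRNA-Arg(CCU) gene were sequenced, 100-nucleotide paired-end, from the start population and from each end population of a pooled yeast competition. The competition, in six parallel replicates, lasted 24 hours in YPD at 37°C. Fitness relative to wild type was calculated from changes in genotype frequencies. Genotypes had to have ≥ 100 starting reads, and estimates < 0.5 were set to 0.5.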
As to GUUCCGUUGGCGCAAUGGUACCGCGUUUCCCUCCUAAGGAGAAGACUGCGGGUUCGAGUCCCAUGCGGAACG, the yeast fitness is ≤ 0.5.

Turning to GUACCGUUGGCGUUAUGGUAACGCGUCUCCCUCCUAAGGAGAAGACUACGGGUUCGCGCCCCGUACGGAACG, the yeast fitness is ≤ 0.5. Next, GUUCCGUUGGCGUAAUGGUAACGCGUCUCCCUCCUAAGGAGGAGACUGCGGGUUCGCGUCCCGUACGGAACG: 0.7.

Take GUUGCGUUGGCGUAAUGGUAAGGCGUCUCCCUCCUAAGGAGAAGACUGCGGCUUCGAGUCCCGUACGCAACG: the yeast fitness is 0.575. In the case of GUUCCGUUGGCGUAAUGGUAUCGCGUGUCCCCCCUAAGGAGAAGACUGCGGGUUCGAGUCCCGUACGGAACG, the yeast fitness is ≤ 0.5. Next, GUUCCGUUGGCGUGAUGGUAACGGGUCUCCCUCCUAAGGAGAAGACUGCGGAUUCGAGUCCCGUACGGAACG: ≤ 0.5. Next, GUUCAGUCGGCGUAAUGGUGACGCGUCUCCCUCCUAAAGAGACGACUGCGGAUUCGAGUCCCGUACGGCACG: ≤ 0.5; GUUCCGUUGGCGUAAUGGUAACGCGUCUCACUCCUAAGGAGAAGACUGCGGGUUCGAGUCCCGUACGGGACG: 0.915.

As for GUUCGGUUGGCGGAAUGGUAACGCGUCUCCCUCCUAAGGUGAAGACUGCGGGUUCGAGUCCCGUACGGAACG, the yeast fitness was ≤ 0.5.

Turning to GUUCCGUUGGAGUAAUGGUAACGCGUCUCCCUCCUAAGGAGAAGACUGCGGGUUCGAGUCCCGUACUGAACG, the yeast fitness is 0.584. Next, GUUCUGUUGGCGUAAUGGUAAGGCGUCUCCCUCCUAAGGAGAAGACUGCGGGUUCGAGUCCCGUGCGGAACG: 0.588; GUUCCGUUGGCGUAAUGGUAACGCGUCUCGCUCCCAAGGAGAAGAUUGCGGGUUCGAGUCCCGUCCGGAACG: ≤ 0.5. The figure for GUUCCGUUGGCGUACUGGUAACGCGUCUCCCUCUUAAGGAGAAGACUGCGGGUUCGAGUCCCGUACGGCACG is ≤ 0.5. The figure for GUUCCGUUGGCGUAAUGGUAACGCGUCCCCCUUCUAAGGAGAAGACUGCGGGUUCGACUCCCGUACGGAACG is ≤ 0.5; for GUUCCGUUGGCGUAAUGGUCUCGCGUCUACCUCCUAAGGAGAAGUCUGCGGGUUCGAGUCCCGUACGGAACG it is ≤ 0.5; for GAUCGGUUGGCGUAGUGGUAACGCGUCUCCCUCCUAAGGAGAAGACUGCGGGUUCAAGUCCCGUACGGAACG it is ≤ 0.5. For GUGCCGUUGGCGUAAUGGUAGCGCGUCUCCCUCCUAACGAGAAGACUGCGGGUUCGAGUCCCGUACGGAACG, the yeast fitness is ≤ 0.5. As to GUUCUGUUGGUGUAAUGGUAACGCGUCUCCCUCCUAAGGAGAAGACUGCGGGUUCGAGUUCCGUACGGUACG, the yeast fitness was 0.538.

In the case of GCUCCGUUGGCGUAAUGGUAGCGCGUCUCCCUGCUAAGGAGAAGACUGCAGGUUCGAGUCCCGUACGGAACG, the yeast fitness is ≤ 0.5. The figure for GUUCCCUUGGAGUAAUGGUAACGCGUCUCCCUCGUAAGGAGAAGACUGCGGGUUCGAGUCGGGUACGGAACG is ≤ 0.5; for GUUCCGAAGCCGUAAUGGUGACGCGUGUCCCUCGUAAGGAGAAGACUGCGGGUUUGAGUCCCGUACGGAACG it is ≤ 0.5. The figure for GUUCAGUUGGCGUAAUGGUAACGUGUCUCCCUCCCAAGGAGAAGACUGCGGGUUCGAGUCCCGUAUGGAACG is 0.549; for GUUCCGUUGGAGUAAUGGUACCGCGUCUCCAUCCUAAGGAGAAGACUGCGGGUUCGAGUCCCGUACCGAACG it is ≤ 0.5; for GUUCCGUUGGCGUAAUGGUAACGCGUCUCCCUCCUAAGCAGGAGACUGCGGGUUCGAGUCCCGUACGGAACG it is 0.653.

With GUUCCGUUGGCGUAAUGGUAACGCGUCUCCUUCCUAAGGAGACGACUGCGGGUUCGAGUCCCGUACGGCACG, the yeast fitness was 0.902. Next, GUUCCGUUGGCGAAAUGGUAACGCGUCUCCCUCCUAAGGAGAAGACUGCGGCUUCGAGUCCGGUACGGAACG: ≤ 0.5; GUUUCGUUGGAGUAAUGGUAACGCGUCUCCCUCCUAAGAAGAAGACUGCGAGUUCGAGUCCCGUACCGAACG: ≤ 0.5; GUUCCGUUGGCGUAAUGGUAACGCGUGUCCCUCCUAAAGAGAAGACUGCGGGUUCGUGUCCCGUACGGAACG: ≤ 0.5. Next, GUCCCGUUGGCGUAAUGGUAACGCAUCUCCCUCCUAAGGAGAAGACUGCGGGUCCGAGUCGCGUACGGAACG: ≤ 0.5.

GUUCCGUUGGCGUAAUGGUAACGCGUCUCCCUCUUAAGGCGAAGACUGCGGGUUCGAGUCCCAUACCGAACG: the yeast fitness is ≤ 0.5. The figure for GUUCCGUUGGCGUACUAGUAACGCGUCUCCCUCCUAACGAGAAGACUGCGGGUUCGAGUCUCCUACGGAACG is ≤ 0.5; for GUUCCGUUGGCGUAUUGGUACCGGGUCUCCCUCCUAAGGAGAAGACUGCGGGUUCGAGUCCGGUACGGAACG it is ≤ 0.5. Next, GUCCGGUUGGCGUAAUGGUAACGCGGCUCCCUCCUAAGGAGAAGACUGCGGGUUCGAGUCCCGUACGGAACG: ≤ 0.5.

As for GUUCCGUUGGCGUAAUGGUAACGCGUCUCCUUCAUAAGGAGAAGACUGUGGGUCCGAGUCCCGUCCGGAACG, the yeast fitness is ≤ 0.5.

In the case of GUUCCGUUGGCGUAAUGGUAACGCGUCUACCUCCUAAGGAGAGGACUGCGGGUUCGAGUCCCGUAAGGUACG, the yeast fitness was ≤ 0.5. Next, GUUCCGUUAGCGUAAUGGUAACGGGUCUCCCUCCUACGGAGAAGACUGCGGGUUCGAGUCCCGAACGGAACG: ≤ 0.5; GUUUCGUUGGCGUAAUGGUAACGCGUCUCCCUCCUAAGCAGAAGACUGCGGGUUCGAGGCCAGUACGGAACG: ≤ 0.5. Next, GUUCCGUUGGCGUAAAGGUAACGCGUCAGCCUCCUAAGGAGAAGACUGCGGGUUCGAGUCCCGUACGGAGCG: ≤ 0.5.
